Laboratory results from the M2OR odorant receptor database.
Residue numbers refer to the chain shown, from its start. This is a selection; strong and weak results do not stand in their true shares. Calls are pooled over several reports, among them a noisy single-well screen. The list shows a part of the results.

Chains of the proteins cited; added tags and fusions are not shown. Chains listed by the source or under a name are the forms on record and can include a tag or linker.
O4F17, as listed by the source: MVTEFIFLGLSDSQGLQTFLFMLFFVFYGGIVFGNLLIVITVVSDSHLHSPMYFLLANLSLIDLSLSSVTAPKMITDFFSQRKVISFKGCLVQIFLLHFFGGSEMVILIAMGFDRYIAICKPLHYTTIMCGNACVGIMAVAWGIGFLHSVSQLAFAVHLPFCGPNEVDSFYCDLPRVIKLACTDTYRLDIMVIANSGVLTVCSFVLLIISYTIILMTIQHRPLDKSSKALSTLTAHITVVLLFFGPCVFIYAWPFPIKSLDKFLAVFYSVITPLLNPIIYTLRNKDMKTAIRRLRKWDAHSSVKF
O4C46, as listed by the source: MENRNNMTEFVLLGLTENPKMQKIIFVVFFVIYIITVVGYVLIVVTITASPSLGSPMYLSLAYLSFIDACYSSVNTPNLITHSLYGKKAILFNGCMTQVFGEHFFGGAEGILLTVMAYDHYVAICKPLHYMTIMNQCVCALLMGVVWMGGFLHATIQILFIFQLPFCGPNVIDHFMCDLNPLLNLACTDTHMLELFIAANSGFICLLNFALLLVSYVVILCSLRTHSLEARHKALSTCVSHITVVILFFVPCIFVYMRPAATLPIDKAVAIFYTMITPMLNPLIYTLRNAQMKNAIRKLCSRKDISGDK
O4A15, as listed by the source: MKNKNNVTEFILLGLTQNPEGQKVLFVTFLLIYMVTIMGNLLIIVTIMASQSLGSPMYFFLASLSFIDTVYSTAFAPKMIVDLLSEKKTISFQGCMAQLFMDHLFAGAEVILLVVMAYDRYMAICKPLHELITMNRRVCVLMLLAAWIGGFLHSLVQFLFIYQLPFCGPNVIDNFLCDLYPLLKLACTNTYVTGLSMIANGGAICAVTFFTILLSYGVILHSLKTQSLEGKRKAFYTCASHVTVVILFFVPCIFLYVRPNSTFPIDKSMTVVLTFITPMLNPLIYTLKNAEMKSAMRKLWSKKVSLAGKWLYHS

Experiments:
Conditions in all cases: stereoisomer not certain
O2T11 = test system: T1, O2T11
T1 sequence (whole entry): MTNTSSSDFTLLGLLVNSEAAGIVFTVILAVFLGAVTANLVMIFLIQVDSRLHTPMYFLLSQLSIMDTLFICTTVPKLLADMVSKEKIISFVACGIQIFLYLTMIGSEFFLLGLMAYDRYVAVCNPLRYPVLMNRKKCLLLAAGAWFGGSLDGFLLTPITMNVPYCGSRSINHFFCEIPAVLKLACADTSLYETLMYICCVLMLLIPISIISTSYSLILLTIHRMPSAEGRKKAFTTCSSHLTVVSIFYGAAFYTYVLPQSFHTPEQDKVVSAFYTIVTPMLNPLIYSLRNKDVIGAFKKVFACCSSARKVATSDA
How it was run: (§1)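 Assay methods differ from source to source, frequently being transient luciferase assays in mammalian cell lines. For each receptor–molecule pair, the label responsive (active) applies when the original authors judged the measured signal statistically different from baseline, and non-responsive (inactive) applies otherwise.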

O2T29 [1] = test system: T2, O2T29
T2 sequence (whole entry): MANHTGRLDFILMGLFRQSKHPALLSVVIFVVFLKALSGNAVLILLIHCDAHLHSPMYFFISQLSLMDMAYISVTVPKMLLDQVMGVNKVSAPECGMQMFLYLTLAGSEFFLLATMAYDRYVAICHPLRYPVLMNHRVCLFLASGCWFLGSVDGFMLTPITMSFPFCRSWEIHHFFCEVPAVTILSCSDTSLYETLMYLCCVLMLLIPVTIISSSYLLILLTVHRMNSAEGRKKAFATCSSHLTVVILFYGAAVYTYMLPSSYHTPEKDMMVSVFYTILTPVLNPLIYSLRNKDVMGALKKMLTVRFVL
How it was run: as §1

O2T29 [2] = test system: T3, O2T29; remark: listed apart in the source
T3 sequence (whole entry): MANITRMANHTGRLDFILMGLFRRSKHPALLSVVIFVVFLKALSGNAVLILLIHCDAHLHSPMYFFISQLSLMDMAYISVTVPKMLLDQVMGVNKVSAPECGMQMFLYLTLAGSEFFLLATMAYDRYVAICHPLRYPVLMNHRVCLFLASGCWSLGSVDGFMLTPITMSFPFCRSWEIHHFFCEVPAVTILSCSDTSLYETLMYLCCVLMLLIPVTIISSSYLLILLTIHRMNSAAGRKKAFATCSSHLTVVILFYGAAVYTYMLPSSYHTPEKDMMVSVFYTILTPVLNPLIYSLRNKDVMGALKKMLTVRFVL
How it was run: as §1

O2T33 = test system: T4, O2T33
T4 sequence (whole entry): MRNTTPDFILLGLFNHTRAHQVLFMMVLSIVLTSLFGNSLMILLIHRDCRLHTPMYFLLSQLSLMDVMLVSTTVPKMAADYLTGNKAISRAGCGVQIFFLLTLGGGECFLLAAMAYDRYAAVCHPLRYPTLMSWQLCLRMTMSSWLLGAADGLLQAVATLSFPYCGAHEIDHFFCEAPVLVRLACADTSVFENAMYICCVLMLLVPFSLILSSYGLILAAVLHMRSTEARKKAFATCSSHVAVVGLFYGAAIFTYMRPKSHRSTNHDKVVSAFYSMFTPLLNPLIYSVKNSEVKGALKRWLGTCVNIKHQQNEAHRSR
How it was run: as §1

O2T34 = test system: T5, O2T34
T5 sequence (whole entry): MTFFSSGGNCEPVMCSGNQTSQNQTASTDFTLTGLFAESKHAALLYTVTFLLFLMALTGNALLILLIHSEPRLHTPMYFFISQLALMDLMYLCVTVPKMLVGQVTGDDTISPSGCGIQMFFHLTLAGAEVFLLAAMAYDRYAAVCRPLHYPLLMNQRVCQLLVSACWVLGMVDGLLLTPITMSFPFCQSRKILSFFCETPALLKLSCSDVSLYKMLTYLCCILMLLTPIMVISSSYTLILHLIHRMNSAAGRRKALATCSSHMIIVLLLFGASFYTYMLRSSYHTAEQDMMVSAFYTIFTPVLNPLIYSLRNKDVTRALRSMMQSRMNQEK
How it was run: as §1

O2T35 = test system: T6, O2T35
T6 sequence (whole entry): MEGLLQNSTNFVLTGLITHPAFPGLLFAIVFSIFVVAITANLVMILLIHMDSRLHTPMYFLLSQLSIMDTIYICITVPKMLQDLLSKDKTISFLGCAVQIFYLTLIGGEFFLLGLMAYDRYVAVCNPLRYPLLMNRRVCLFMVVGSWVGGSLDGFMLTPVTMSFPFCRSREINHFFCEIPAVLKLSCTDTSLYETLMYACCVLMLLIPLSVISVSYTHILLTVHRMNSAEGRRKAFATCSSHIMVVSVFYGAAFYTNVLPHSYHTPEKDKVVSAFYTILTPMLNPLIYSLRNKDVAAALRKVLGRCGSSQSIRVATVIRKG
How it was run: as §1

O4A15 = test system: O4A15
How it was run: as §1

O4A47 = test system: T7, O4A47
T7 sequence (whole entry): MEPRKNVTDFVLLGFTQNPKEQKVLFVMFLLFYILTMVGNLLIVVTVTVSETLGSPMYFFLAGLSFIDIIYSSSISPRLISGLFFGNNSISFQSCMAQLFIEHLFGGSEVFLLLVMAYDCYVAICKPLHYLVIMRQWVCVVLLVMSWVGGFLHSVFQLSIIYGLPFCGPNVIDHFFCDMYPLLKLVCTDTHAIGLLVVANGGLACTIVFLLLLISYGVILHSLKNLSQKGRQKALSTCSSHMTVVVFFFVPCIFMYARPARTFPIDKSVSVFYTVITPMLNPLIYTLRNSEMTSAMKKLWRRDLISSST
How it was run: as §1

O4C46 = test system: O4C46
How it was run: as §1

O4F17 [3] = test system: T8, O4F17
T8 sequence (whole entry): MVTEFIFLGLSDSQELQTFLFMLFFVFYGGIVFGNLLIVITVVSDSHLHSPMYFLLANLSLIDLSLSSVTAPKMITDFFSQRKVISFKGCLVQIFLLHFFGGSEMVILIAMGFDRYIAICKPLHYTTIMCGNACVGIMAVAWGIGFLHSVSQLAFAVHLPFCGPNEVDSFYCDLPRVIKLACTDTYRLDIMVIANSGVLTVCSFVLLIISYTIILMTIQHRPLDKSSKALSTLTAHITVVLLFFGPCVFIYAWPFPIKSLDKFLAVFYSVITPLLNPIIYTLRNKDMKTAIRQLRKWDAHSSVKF
How it was run: as §1

O4F17 [4] = test system: T9, O4F17; remark: listed apart in the source
T9 sequence (whole entry): T8 sequence (whole entry) with E15G, Q293R
How it was run: as §1

O4F21 = test system: T10, O4F21
T10 sequence (whole entry): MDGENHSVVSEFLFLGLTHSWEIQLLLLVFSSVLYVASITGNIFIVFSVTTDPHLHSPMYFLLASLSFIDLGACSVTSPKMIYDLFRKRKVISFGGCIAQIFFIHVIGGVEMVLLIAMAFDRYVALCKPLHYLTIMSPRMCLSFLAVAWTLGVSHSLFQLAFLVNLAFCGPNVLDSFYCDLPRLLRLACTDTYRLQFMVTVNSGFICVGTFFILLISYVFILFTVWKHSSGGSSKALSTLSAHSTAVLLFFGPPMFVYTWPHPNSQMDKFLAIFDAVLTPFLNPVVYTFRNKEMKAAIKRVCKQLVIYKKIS
How it was run: as §1

O51A4 = test system: T11, O51A4
T11 sequence (whole entry): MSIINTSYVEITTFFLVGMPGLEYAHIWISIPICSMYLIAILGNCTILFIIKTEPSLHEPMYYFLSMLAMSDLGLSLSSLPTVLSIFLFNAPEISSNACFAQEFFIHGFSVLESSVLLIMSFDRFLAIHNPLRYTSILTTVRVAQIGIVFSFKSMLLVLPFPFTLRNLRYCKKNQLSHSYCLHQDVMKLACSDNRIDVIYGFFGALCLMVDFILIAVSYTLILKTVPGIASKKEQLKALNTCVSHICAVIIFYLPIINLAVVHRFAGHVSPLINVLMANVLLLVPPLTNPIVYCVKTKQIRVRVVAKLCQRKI
How it was run: as §1

O51B4 = test system: T12, O51B4
T12 sequence (whole entry): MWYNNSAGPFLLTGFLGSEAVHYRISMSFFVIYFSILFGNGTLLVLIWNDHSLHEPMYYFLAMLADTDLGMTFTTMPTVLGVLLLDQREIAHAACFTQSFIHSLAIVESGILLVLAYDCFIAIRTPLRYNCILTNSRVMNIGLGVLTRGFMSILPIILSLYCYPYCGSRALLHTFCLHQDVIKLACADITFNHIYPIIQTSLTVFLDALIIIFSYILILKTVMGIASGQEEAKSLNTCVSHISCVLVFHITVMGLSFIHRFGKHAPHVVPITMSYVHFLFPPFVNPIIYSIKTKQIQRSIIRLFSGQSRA
How it was run: as §1

O51B5 = test system: T13, O51B5
T13 sequence (whole entry): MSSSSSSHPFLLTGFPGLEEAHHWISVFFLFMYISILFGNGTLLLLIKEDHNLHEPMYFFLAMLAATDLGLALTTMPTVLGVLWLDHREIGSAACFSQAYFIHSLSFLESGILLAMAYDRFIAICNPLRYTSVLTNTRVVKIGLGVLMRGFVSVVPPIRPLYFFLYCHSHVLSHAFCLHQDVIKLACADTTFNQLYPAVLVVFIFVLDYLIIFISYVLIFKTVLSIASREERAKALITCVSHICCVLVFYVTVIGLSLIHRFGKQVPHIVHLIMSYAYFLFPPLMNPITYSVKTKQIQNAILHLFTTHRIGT
How it was run: as §1

O51B6 = test system: T14, O51B6
T14 sequence (whole entry): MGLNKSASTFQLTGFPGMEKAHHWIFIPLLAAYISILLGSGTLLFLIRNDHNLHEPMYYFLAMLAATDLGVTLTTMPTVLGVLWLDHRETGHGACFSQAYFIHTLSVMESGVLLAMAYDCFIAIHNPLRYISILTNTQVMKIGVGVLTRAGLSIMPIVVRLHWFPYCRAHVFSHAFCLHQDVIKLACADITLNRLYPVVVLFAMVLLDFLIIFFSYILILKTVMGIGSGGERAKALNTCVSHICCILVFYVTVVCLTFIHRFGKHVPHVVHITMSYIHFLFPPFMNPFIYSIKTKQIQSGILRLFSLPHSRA
How it was run: as §1

O51E1 = test system: T15, O51E1
T15 sequence (whole entry): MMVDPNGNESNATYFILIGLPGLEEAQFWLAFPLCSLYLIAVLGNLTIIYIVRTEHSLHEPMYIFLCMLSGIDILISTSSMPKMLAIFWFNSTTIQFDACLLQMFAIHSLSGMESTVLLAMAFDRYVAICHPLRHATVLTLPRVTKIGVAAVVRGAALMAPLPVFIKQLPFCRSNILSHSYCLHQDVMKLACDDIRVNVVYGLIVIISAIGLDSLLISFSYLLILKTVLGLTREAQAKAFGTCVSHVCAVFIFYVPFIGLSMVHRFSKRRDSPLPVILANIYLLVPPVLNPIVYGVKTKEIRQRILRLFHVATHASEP
How it was run: as §1

O51F1 = test system: T16, O51F1
T16 sequence (whole entry): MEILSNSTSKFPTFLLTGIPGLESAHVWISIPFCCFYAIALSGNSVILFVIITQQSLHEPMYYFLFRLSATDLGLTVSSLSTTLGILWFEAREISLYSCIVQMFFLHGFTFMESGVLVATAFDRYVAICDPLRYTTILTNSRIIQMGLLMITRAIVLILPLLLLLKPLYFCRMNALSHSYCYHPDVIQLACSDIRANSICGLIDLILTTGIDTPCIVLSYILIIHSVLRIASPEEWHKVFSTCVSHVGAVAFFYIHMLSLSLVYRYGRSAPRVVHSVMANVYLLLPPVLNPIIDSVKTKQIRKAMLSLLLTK
How it was run: as §1

O51F2 = test system: T17, O51F2
T17 sequence (whole entry): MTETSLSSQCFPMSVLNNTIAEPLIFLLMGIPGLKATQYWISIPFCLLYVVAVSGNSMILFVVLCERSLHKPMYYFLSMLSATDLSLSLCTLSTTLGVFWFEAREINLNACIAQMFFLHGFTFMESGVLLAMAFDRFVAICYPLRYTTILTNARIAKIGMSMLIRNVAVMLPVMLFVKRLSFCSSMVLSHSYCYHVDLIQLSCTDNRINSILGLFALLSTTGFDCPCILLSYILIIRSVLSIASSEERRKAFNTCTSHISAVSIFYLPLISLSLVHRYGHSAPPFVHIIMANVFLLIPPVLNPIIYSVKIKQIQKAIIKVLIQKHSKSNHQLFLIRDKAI
How it was run: as §1

Compound | odorant receptor agonist call (O2T11) | odorant receptor agonist call (O2T29 [1]) | odorant receptor agonist call (O2T29 [2]) | odorant receptor agonist call (O2T33) | odorant receptor agonist call (O2T34) | odorant receptor agonist call (O2T35) | odorant receptor agonist call (O4A15) | odorant receptor agonist call (O4A47) | odorant receptor agonist call (O4C46) | odorant receptor agonist call (O4F17 [3]) | odorant receptor agonist call (O4F17 [4]) | odorant receptor agonist call (O4F21) | odorant receptor agonist call (O51A4) | odorant receptor agonist call (O51B4) | odorant receptor agonist call (O51B5) | odorant receptor agonist call (O51B6) | odorant receptor agonist call (O51E1) | odorant receptor agonist call (O51F1) | odorant receptor agonist call (O51F2)
CC12CCC(C1)C(C)(C)C2=O (centres undefined) | inactive | inactive | inactive | inactive | inactive | inactive | inactive | inactive | inactive | inactive | inactive | inactive | inactive | inactive | inactive | inactive | inactive | inactive | inactive
COc1cc(C)ccc1O | inactive | inactive | inactive | inactive | inactive | inactive | inactive | inactive | inactive | inactive | active | inactive | inactive | inactive | inactive | inactive | inactive | inactive | inactive
CC1CCC(C(C)C)C(O)C1 (centres undefined) | inactive | active | inactive | inactive | inactive | active | inactive | inactive | active | inactive | active | inactive | inactive | inactive | active | inactive | inactive | inactive | inactive
COC(=O)c1ccccc1O | inactive | inactive | inactive | inactive | inactive | inactive | inactive | inactive | inactive | inactive | inactive | inactive | inactive | inactive | inactive | inactive | inactive | inactive | inactive
CC(=O)C(C)=O | inactive | inactive | inactive | inactive | inactive | inactive | inactive | inactive | inactive | inactive | inactive | inactive | inactive | inactive | inactive | active | inactive | inactive | inactive
c1cnccn1 | inactive | inactive | inactive | inactive | inactive | inactive | inactive | inactive | inactive | inactive | inactive | inactive | inactive | inactive | inactive | inactive | inactive | inactive | inactive
